Experimental data published in PMC2965115.
These are yes or no findings as the source states them, for the method shown. Binding seen in cells or lysates may run through a third protein. Some binding calls cover weakened binding; strength is not graded here. For part of these data: Sequences can lack the tags named with a protein.

Chains of the proteins cited; added tags and fusions are not shown.
UniProt O17695: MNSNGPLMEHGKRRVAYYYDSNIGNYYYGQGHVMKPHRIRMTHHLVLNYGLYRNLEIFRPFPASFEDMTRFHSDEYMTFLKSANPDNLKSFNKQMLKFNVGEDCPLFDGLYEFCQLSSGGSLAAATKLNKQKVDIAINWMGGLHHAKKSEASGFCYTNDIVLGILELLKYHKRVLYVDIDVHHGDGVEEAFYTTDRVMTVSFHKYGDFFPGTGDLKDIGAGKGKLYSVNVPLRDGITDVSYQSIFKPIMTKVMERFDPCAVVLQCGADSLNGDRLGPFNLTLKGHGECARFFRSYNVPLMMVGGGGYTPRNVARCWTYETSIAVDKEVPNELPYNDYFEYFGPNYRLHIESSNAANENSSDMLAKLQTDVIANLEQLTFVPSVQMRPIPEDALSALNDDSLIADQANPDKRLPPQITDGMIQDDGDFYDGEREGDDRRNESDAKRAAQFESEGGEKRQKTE
UniProt P90916: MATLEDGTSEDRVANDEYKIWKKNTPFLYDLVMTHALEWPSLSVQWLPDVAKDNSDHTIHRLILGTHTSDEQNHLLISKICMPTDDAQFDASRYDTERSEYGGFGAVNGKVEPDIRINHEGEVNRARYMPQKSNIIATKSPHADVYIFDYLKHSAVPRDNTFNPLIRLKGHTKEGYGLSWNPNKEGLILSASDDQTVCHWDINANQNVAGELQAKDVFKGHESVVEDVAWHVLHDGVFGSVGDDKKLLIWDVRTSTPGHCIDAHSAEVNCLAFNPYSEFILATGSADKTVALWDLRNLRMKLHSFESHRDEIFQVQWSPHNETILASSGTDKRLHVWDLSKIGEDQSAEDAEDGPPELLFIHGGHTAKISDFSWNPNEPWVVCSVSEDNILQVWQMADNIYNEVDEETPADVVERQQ
UniProt G5EBZ4: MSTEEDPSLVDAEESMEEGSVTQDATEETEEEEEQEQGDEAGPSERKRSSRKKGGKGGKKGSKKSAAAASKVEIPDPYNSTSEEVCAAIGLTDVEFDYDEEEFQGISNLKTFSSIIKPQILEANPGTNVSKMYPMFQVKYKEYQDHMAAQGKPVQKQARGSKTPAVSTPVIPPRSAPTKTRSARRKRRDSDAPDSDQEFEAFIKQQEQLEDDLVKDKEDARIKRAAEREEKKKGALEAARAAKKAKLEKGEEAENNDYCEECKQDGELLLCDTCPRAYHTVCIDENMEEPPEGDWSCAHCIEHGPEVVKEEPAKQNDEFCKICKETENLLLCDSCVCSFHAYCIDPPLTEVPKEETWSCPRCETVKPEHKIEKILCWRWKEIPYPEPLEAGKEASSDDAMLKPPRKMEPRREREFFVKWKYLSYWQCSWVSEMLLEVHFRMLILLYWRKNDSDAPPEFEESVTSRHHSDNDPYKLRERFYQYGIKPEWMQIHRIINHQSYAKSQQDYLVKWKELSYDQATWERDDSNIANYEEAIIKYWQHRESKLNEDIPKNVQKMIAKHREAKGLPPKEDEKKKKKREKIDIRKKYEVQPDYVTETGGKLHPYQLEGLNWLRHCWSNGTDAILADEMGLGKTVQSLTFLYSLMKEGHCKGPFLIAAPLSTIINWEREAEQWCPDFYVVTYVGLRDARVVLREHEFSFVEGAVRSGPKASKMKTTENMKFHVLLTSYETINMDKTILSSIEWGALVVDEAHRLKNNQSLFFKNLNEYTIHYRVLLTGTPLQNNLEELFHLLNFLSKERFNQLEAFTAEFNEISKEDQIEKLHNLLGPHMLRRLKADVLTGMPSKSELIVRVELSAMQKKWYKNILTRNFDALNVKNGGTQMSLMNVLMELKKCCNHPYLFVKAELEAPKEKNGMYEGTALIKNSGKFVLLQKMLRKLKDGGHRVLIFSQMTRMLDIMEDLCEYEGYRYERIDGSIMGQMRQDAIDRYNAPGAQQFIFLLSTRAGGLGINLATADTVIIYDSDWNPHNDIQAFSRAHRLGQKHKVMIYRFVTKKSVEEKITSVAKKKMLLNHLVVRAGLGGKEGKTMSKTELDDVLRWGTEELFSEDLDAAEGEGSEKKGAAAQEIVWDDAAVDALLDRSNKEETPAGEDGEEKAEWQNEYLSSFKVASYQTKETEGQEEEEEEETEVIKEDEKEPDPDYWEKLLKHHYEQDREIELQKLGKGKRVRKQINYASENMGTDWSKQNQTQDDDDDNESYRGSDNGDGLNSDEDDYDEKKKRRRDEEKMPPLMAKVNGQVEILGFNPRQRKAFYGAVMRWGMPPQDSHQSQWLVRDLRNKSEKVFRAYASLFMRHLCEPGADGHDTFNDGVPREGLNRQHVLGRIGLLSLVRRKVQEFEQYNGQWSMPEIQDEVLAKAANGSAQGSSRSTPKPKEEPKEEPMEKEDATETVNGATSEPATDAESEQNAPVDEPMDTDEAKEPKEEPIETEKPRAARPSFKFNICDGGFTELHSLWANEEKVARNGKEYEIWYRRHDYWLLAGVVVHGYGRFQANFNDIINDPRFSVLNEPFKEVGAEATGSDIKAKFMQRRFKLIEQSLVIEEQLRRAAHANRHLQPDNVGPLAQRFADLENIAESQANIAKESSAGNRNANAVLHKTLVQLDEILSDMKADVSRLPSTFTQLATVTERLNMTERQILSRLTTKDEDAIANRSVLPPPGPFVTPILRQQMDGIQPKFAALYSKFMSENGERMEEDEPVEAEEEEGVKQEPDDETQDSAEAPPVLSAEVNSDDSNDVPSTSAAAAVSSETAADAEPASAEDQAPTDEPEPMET
UniProt Q22516: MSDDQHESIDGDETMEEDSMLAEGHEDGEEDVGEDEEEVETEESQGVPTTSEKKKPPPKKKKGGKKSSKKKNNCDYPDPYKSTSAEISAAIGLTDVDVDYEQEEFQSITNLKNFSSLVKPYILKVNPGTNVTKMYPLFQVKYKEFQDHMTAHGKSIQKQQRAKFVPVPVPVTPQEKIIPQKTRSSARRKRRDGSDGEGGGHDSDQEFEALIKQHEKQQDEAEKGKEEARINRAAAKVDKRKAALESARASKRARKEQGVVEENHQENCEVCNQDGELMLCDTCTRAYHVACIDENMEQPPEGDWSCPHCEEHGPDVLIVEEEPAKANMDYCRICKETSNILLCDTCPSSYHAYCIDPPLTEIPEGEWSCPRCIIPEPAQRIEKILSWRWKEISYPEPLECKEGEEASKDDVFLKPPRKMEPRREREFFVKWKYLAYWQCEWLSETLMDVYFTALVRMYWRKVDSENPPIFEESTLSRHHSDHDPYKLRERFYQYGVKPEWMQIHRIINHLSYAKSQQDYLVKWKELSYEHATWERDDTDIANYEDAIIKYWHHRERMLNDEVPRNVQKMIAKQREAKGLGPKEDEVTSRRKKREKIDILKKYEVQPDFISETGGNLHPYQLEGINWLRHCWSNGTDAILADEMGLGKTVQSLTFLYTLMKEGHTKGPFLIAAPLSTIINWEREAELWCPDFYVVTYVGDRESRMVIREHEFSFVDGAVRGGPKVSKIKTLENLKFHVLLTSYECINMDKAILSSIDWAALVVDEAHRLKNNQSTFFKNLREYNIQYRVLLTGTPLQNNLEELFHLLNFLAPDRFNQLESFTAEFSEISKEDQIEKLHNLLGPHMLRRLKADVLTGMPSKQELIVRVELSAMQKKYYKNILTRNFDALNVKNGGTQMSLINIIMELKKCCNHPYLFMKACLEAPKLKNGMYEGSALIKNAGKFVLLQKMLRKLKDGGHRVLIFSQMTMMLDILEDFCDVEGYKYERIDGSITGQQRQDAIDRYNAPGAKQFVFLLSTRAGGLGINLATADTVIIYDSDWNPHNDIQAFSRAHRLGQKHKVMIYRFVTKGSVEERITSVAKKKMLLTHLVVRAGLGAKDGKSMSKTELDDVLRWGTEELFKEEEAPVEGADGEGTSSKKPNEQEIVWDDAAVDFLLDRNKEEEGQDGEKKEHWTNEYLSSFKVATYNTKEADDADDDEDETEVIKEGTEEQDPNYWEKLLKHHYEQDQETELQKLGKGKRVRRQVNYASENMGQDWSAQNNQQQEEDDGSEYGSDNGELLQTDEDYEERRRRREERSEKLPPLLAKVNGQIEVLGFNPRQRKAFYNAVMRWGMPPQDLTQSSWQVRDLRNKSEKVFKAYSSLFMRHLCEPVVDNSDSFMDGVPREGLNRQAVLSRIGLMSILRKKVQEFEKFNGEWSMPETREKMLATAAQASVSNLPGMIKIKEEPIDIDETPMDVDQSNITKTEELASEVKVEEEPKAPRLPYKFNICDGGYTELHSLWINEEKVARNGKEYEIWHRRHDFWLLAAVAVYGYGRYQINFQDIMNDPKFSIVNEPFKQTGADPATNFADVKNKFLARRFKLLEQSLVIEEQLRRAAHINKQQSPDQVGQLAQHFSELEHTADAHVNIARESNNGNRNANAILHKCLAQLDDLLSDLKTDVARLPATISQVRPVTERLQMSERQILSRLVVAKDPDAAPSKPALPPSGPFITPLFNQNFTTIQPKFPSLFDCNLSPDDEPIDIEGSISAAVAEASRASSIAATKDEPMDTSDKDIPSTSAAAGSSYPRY

Assays:
Assay in all cases: co-IP; approximatively 1 mg of protein extract from mixed-stage worms with 1 µg of antibodies per reaction; anti-AFP mAb 3E6 for GFP-tagged proteins; immunoprecipitates analysed by Western blot
[1] = target: HDA-1 (C. elegans (endogenous in mixed-stage worms)) (UniProt O17695)
[2] = target: LIN-53::GFP (C. elegans) (UniProt P90916)
[3] = target: LET-418 (C. elegans (endogenous in mixed-stage worms)) (UniProt G5EBZ4)
[4] = target: T1, MEP-1 (C. elegans (endogenous in mixed-stage worms)) (UniProt Q21502)
T1 sequence: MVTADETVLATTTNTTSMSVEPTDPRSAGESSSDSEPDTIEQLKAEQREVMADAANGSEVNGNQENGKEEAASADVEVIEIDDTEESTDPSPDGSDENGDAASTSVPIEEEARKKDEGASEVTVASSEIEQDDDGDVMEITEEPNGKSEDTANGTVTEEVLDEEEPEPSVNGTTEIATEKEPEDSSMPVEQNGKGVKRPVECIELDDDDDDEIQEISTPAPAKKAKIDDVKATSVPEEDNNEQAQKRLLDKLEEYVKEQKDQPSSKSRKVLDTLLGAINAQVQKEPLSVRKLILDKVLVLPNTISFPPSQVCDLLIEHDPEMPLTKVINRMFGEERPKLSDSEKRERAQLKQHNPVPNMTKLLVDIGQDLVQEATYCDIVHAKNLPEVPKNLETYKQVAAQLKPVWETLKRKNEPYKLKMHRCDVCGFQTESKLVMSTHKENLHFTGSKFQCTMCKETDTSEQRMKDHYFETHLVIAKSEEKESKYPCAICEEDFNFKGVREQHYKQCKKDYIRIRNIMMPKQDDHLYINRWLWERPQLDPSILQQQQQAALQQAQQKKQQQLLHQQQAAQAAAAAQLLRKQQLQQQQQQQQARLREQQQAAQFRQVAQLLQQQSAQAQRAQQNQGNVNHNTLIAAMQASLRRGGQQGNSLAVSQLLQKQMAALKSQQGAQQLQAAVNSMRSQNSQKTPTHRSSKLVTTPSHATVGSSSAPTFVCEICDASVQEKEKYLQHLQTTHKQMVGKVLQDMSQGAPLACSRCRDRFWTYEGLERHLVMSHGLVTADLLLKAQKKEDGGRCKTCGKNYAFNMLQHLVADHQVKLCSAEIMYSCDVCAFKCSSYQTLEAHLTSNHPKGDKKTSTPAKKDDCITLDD

[5] = target: T2, EGL-27::GFP (C. elegans) (UniProt Q09228)
T2 sequence: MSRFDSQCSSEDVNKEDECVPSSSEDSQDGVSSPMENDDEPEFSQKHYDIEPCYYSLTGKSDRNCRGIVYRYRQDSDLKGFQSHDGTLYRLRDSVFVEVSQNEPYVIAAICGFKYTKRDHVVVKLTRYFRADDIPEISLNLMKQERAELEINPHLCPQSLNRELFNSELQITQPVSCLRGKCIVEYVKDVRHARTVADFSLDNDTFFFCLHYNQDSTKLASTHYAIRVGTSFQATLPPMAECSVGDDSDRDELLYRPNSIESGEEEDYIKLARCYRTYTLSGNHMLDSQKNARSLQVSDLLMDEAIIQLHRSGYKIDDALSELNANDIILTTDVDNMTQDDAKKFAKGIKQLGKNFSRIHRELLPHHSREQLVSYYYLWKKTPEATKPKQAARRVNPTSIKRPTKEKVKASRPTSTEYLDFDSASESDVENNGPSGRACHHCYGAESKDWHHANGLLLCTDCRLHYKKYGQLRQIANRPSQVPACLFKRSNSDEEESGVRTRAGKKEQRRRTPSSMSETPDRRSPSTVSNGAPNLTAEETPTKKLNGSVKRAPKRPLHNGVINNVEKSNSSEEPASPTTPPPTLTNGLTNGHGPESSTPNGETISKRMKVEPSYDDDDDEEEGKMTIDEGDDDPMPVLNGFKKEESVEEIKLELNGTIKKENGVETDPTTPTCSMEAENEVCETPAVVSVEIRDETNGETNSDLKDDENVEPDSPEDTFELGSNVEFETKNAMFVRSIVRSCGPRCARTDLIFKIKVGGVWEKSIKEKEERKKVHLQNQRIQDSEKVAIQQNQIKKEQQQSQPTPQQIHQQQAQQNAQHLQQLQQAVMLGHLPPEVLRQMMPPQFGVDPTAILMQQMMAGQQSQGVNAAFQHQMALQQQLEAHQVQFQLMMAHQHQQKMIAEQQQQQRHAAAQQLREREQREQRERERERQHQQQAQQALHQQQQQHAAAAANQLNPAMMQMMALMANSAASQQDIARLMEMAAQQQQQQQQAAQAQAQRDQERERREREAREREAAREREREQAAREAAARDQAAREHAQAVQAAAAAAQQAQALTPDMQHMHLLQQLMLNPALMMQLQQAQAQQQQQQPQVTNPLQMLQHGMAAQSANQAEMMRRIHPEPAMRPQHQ

binding [1]	binding [2]	binding [3]	binding [4]	binding [5]	Substance
binds	binds	no binding	no binding		CHD-3 (from UniProt Q22516 1-1787)
		binds			LIN-53 (from UniProt P90916 1-417)
	binds	binds	binds	no binding	HDA-1 (from UniProt O17695 1-461)
	binds		binds	no binding	LET-418 (from UniProt G5EBZ4 1-1829)
